The target of this assay is carboxyl-terminal regulatory domain (RD) of human Akt1 fused to GAL4DB (human) (UniProt P04386+P31749). Briefly: yeast two-hybrid binding assay.

Protein sequences, listed by entry. Tags and fused reporters are not part of them. Lines headed by an entry give the natural chain unless they say otherwise; changes in a name come on top.
UniProt P04386: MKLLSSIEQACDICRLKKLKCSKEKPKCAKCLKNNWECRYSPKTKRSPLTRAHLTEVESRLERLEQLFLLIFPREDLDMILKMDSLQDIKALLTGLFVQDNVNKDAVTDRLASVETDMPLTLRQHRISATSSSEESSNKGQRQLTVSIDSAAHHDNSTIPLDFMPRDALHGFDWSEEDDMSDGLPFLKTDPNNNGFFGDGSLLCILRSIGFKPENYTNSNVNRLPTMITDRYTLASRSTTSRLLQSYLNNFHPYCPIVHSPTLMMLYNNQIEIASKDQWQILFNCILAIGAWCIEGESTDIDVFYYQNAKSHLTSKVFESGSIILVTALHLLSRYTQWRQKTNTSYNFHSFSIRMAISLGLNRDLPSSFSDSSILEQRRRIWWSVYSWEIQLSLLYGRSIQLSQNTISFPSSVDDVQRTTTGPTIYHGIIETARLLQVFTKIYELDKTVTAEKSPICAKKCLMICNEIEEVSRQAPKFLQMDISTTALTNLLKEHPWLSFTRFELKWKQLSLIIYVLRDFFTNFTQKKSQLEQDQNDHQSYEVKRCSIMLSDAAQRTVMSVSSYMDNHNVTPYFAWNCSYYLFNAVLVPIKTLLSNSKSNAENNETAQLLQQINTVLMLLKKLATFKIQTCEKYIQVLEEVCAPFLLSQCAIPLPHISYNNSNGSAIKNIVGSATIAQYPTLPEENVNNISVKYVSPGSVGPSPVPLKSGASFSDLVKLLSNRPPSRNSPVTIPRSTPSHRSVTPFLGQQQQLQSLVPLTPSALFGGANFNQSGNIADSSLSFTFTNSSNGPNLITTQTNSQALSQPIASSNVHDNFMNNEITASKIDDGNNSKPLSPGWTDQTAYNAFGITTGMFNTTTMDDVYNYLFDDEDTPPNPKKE
UniProt P31749: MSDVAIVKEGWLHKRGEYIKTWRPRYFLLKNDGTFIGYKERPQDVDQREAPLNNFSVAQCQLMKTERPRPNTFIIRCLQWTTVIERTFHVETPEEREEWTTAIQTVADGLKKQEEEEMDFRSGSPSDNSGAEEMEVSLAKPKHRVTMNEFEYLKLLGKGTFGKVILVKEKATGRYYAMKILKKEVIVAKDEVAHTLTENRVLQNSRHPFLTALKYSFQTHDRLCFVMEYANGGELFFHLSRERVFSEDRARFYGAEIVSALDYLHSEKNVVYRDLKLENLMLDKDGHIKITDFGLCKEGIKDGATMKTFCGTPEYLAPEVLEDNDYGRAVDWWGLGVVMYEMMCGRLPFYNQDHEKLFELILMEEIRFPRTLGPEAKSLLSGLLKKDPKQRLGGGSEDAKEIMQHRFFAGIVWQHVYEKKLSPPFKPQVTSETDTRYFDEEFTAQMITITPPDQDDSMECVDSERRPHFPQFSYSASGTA

Results are given in words; binding and its absence hold for the method and conditions named. Some entries that bind do so weakly or less than the wild type.

B1: protein encoded by the F-10 and F-12 cDNAs (C-terminal region of Girdin, residues 1217-1870) (protein, not shown: large carriers)
chain: MLKVEQEKMLLENKNHETVAAEYKKLCGENDRLNHTYSQLLKETEVLQTDHKNLKSLLNNSKLEQTRLEAEFSKLKEQYQQLDITSTKLNNQCELLSQLKGNLEEENRHLLDQIQTLMLQNRTLLEQNMESKDLFHVEQRQYIDKLNELRRQKEKLEEKIMDQYKFYDPSPPRRRGNWITLKMRKLIKSKKDINRERQKSLTLTPTRSDSSEGFLQLPHQDSQDSSSVGSNSLEDGQTLGTKKSSMVALKRLPFLRNRPKDKDKMKACYRRSMSMNDLVQSMVLAGQWTGSTENLEVPDDISTGKRRKELGAMAFSTTAINFSTVNSSAGFRSKQLVNNKDTTSFEDISPQGVSDDSSTGSRVHASRPASLDSGRTSTSNSNNNASLHEVKAGAVNNQSRPQSHSSGEFSLLHDHEAWSSSGSSPIQYLKRQTRSSPVLQHKISETLESRHHKIKTGSPGSEVVTLQQFLEESNKLTSVQIKSSSQENLLDEVMKSLSVSSDFLGKDKPVSCGLARSVSGKTPGDFYDRRTTKPEFLRPGPRKTEDTYFISSAGKPTPGTQGKIKLVKESSLSRQSKDSNPYATLPRASSVISTAEGTTRRTSIHDFLTKDSRLPISVDSPPAAADSNTTAASNVDKVQESRNSKSRSREQQSS
B1: the binding result was “binds”.

These data come from patent US20160041176A1.
